Values from PubChem BioAssay AID686937 (Drosophila RNAi Screening Center, 2013).
The screen tested about 23,000 reagents; this is an unselected part of those with a known target gene and a result. 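Reduced-secretion tags in replicate 1 do not always agree with the z-scores; no criterion for assigning the tags was given.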 Reagents against one gene are numbered here. Names joined by + are all predicted targets of the reagent. Not all columns of the deposit are shown. Reagent sequences are not shown. Not given: the amount of reagent.

Test: 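Knock-downs that reduce output of a secreted reporter enzyme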 (primary screen)
Cell system: Drosophila S2 cells expressing secreted horseradish peroxidase
Reagent: long dsRNA against Drosophila genes
Time to read-out: about 5.5 days (5 days dsRNA, then 12 h reporter induction)
Challenge: reporter expression induced after 5 days of dsRNA, read 12 h later; inducer not stated
Measurement: 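Chemiluminescent measurement of peroxidase in the medium 12 h after reporter induction, following 5 days of dsRNA, given as a z-score per plate; higher means more secretion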
Scale: z-score: higher = more reporter secreted into medium

predicted target,reagent,"z-score, replicate 1","z-score, replicate 2","z-score, replicate 3","z-score, replicate 4"
CG14937,1,0.05,0.09,,
Syn,1,0.1,0.51,,
vtd,1,-0.37,-0.23,,
CG15530,1,0.33,0.59,,
TwdlJ,1,0.55,0.64,,
Taf10b,1,0.18,0.12,,
CG8160,1,0.09,0.42,0.49,0.24
CG8160,2,0.23,-0.57,,
CG4945,1,0.21,0.16,,
Ugt302K1,1,0.48,0.64,,
CG9308,1,0.41,0.4,,
Svip,1,0.39,0.38,,
CG14304,1,0.18,0.15,,
CG3568,1,0.37,0.23,,
Ets97D,1,0.12,0.29,,
Dhps,1,0.15,-0.13,,
Arl4,1,0.29,0.38,,
wtrw,1,0.37,0.25,,
wtrw,2,0.66,0.2,-0.53,0.1
Hrs,1,0.38,0.49,,
tx,1,0.17,0.45,,
csw,1,-0.83,0.07,,
CG7966,1,0.18,-0.05,,
CG12948,1,0.27,-0.03,,
Mf,1,0.21,0.41,,
Tsp42Ej,1,0.25,0.41,,
jbug,1,0.01,0.13,,
jbug,2,0.08,0.41,,
jbug,3,-0.41,0.15,,
jbug,4,0.41,0.35,,
CG17239,1,0.2,0.15,,
Mettl2,1,0.09,0.01,,
ovo,1,0.51,0.22,,
ovo,2,0.41,0.17,,
CG8281,1,0.44,0.39,,
Mp20,1,0.34,0.31,,
CG6870,1,0.39,0.32,,
CG7488,1,0.37,0.08,,
CG2121,1,0.33,0.41,,
CG2121,2,0.42,0.37,,
tn (retired record),1,0.35,0.33,,
tn (retired record),2,0.35,0.41,,
CG32100,1,0.1,0.42,,
CG32100,2,0.21,0.28,,
CG13018,1,0.23,0.43,,
CG5665,1,0.59,0.72,,
Pngl,1,0.44,0.39,,
CG33490,1,0.29,0.24,,
CG1622,1,-0.47,0.25,,
CG33792,1,0.08,0.45,,
Hao + Pex6,1,0.43,0.43,,
Hao + Pex6,2,-0.02,-0.1,,
CG5853,1,0.24,-0.24,,
CG5853,2,0.58,0.45,,
Cyp9f3,1,0.1,0.18,,
Treh,1,0.33,0.23,,
CG13744,1,0.34,0.07,,
robo3,1,0.34,0.26,,
robo3,2,-0.18,0.15,,
robo3,3,0.29,0.27,,
CG15877,1,-0.02,0.01,,
CG31913,1,0.03,0.29,,
CG1894,1,0.42,0.25,,
nord,1,0.25,0.25,,
nord,2,0.13,0.2,,
CG10053,1,0.37,0.18,,
x16,1,0.71,0.28,,
x16,2,0.04,0,,
CG13022,1,0.3,0.41,,
COX6AL2,1,0.17,0.51,,
CG31952,1,0.24,0.27,,
CG31952,2,0.19,0,,
ATP6AP2,1,-0.87,0.18,,
Fa2h,1,0.09,0.1,,
Fa2h,2,0.11,0.13,,
Alas,1,0.27,0.23,,
Osi6,1,0.03,-0.34,,
Mpcp1,1,0.01,0.19,,
Edg91,1,-0.41,0.3,,
yellow-f,1,0.32,0.14,,
eff,1,-2.89,-3.35,,
stol,1,0.04,0.21,,

11 consecutive reagents from above:
predicted target,reagent,"z-score, replicate 1","z-score, replicate 2","z-score, replicate 3","z-score, replicate 4"
robo3,1,0.34,0.26,,
robo3,2,-0.18,0.15,,
robo3,3,0.29,0.27,,
CG15877,1,-0.02,0.01,,
CG31913,1,0.03,0.29,,
CG1894,1,0.42,0.25,,
nord,1,0.25,0.25,,
nord,2,0.13,0.2,,
CG10053,1,0.37,0.18,,
x16,1,0.71,0.28,,
x16,2,0.04,0,,
